Measurements: article doi:10.1101/2025.10.15.682653
These are yes or no findings as the source states them, for the method shown. In cells and extracts the contact can be indirect. Some results given as binding are weak or reduced against the parent protein; the word gives no strength.

Protein sequences, listed by entry. Tags and fused reporters are not part of them. Lines headed by an entry give the natural chain unless they say otherwise; changes in a name come on top.
UniProt Q96EB6, whole entry: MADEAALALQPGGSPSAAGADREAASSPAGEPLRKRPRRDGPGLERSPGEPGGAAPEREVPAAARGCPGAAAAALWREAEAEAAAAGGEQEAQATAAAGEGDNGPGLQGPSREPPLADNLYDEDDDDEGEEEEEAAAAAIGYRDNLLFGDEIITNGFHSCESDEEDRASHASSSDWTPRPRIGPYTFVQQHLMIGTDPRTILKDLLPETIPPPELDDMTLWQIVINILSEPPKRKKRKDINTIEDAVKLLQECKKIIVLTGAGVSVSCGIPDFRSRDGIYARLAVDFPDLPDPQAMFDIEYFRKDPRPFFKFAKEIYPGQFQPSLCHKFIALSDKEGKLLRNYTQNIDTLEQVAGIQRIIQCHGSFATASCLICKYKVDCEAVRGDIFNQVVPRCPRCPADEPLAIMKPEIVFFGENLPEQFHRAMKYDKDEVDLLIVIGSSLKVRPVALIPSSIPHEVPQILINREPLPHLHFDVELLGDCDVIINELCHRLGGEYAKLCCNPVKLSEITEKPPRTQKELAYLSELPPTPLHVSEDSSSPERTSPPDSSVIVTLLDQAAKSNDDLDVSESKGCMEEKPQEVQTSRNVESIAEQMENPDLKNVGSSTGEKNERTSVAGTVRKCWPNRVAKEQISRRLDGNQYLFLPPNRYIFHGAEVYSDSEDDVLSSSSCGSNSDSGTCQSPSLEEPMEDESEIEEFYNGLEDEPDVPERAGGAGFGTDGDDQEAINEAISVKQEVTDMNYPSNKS
UniProt Q6ZQF0, whole entry: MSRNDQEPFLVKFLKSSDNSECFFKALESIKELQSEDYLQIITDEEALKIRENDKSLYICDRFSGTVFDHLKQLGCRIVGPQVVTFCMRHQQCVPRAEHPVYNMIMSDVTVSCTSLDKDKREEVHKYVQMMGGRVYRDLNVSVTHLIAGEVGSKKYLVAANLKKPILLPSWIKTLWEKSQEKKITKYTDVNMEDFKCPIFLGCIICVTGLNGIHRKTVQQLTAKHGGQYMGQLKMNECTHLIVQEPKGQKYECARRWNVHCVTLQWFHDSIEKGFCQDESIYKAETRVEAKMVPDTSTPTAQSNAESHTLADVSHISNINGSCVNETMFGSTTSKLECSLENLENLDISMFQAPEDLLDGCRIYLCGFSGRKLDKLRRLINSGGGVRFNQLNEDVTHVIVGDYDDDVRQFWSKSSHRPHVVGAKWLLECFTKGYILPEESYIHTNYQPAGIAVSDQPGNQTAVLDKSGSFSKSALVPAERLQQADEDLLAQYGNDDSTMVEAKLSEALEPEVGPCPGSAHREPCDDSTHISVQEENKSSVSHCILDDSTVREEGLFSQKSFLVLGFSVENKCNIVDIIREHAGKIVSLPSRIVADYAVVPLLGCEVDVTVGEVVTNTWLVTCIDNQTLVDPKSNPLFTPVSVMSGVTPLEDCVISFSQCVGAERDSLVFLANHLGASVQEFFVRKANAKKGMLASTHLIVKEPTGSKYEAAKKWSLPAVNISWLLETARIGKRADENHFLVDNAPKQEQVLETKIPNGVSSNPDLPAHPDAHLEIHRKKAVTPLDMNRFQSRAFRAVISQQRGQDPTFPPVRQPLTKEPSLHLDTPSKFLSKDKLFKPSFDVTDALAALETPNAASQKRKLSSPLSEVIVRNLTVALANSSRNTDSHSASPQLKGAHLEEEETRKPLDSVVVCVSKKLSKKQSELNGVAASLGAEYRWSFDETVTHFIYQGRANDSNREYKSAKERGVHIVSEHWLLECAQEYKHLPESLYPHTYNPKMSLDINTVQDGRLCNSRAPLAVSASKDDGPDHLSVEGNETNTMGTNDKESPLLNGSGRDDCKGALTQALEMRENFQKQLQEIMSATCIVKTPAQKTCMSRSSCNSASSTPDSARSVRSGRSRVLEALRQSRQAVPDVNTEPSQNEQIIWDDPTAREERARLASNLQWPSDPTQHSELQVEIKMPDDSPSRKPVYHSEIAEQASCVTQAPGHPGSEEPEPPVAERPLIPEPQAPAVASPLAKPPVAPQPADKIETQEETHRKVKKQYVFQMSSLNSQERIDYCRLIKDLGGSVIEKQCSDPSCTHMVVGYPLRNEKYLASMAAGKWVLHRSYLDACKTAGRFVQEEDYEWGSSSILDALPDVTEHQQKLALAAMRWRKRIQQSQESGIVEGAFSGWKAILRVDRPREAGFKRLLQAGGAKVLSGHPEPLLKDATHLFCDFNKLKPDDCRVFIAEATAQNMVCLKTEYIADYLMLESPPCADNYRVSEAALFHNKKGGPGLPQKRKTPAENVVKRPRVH
UniProt Q8VDP4, whole entry: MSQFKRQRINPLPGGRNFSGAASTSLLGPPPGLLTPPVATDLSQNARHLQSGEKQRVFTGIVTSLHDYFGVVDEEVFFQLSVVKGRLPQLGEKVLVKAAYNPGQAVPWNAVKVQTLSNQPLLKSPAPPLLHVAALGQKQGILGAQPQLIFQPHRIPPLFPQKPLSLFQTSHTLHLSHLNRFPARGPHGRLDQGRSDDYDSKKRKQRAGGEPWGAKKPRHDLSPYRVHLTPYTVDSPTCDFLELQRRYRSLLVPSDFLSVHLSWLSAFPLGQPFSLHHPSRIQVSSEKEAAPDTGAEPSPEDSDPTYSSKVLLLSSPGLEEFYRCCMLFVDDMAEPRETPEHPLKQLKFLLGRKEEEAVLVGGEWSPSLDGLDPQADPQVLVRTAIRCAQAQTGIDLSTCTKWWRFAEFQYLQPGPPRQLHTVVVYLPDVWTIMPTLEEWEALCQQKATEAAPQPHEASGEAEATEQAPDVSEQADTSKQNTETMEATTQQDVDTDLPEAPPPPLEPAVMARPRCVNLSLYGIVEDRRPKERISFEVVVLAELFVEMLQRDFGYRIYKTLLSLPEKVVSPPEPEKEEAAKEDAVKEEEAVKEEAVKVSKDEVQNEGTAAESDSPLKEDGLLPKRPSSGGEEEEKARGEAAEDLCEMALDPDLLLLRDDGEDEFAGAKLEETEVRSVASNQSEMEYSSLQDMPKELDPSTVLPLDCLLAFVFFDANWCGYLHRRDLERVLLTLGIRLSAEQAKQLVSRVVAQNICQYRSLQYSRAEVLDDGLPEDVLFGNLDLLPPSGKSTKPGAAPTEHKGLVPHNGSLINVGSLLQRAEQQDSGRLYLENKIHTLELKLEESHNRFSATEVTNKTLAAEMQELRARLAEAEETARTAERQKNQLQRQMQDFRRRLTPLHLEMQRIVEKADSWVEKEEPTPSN
UniProt Q13535, whole entry: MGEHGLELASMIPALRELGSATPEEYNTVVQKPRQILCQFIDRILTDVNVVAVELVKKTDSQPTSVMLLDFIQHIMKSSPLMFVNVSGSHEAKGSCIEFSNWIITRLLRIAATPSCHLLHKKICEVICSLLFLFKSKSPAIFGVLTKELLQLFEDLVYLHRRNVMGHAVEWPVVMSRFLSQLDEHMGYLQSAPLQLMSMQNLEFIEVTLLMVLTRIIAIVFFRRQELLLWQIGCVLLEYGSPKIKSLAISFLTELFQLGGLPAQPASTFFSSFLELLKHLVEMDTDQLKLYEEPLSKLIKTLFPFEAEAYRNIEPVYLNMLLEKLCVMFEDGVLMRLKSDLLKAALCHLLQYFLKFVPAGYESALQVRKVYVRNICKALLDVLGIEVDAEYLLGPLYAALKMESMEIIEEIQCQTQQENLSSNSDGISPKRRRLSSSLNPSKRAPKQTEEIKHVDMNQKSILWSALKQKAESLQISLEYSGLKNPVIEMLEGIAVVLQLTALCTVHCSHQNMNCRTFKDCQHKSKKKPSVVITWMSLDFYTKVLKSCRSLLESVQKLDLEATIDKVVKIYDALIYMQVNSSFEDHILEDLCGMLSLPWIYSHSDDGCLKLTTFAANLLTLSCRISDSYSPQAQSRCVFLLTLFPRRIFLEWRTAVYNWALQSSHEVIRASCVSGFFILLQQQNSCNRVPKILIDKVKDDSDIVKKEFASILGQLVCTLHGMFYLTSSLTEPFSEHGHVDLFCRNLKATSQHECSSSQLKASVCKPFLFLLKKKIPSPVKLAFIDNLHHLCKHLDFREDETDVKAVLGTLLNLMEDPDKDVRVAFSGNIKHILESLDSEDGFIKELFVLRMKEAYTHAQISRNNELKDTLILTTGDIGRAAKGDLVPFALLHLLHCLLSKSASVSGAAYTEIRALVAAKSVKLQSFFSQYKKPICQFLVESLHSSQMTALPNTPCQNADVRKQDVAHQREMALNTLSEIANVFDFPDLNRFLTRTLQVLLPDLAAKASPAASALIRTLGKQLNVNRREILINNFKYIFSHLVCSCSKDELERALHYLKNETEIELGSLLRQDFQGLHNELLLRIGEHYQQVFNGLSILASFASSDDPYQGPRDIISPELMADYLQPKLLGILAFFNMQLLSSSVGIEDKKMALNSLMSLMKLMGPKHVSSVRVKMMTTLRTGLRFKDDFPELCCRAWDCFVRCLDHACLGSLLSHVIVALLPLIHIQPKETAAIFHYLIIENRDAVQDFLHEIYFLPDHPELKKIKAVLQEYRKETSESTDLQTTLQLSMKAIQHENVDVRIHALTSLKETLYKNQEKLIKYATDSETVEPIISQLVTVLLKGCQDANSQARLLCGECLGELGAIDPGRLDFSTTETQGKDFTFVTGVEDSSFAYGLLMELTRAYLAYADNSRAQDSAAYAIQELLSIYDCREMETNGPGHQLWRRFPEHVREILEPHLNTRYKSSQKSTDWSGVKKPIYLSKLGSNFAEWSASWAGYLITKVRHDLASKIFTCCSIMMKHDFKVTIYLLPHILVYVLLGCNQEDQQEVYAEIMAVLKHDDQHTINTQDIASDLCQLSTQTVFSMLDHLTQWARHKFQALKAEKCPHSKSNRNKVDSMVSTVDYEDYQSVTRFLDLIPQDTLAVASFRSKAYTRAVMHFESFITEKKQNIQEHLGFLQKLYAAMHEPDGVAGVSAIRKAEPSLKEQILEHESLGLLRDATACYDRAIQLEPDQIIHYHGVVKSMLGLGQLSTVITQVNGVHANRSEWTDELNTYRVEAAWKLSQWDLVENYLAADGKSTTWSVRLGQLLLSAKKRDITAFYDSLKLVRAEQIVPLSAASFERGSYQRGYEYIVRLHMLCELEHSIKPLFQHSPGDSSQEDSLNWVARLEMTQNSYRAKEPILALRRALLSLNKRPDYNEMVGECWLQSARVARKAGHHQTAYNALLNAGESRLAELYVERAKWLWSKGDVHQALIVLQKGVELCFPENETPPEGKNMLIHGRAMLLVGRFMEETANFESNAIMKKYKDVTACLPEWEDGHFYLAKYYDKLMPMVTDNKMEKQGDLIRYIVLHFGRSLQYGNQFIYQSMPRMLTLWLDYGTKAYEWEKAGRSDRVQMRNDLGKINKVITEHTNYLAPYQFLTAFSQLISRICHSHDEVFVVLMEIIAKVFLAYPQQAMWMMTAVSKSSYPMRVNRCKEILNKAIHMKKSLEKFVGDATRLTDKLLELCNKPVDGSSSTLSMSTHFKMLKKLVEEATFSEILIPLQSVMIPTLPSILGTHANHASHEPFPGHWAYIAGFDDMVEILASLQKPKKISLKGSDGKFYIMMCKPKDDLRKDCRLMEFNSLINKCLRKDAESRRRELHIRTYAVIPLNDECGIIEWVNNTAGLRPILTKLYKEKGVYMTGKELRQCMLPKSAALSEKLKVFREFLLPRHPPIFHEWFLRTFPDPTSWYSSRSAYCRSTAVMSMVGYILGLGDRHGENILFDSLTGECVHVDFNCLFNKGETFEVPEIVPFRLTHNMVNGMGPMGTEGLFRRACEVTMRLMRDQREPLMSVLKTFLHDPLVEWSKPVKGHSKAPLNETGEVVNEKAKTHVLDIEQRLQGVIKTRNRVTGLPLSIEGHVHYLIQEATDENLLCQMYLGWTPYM
UniProt O96017, whole entry: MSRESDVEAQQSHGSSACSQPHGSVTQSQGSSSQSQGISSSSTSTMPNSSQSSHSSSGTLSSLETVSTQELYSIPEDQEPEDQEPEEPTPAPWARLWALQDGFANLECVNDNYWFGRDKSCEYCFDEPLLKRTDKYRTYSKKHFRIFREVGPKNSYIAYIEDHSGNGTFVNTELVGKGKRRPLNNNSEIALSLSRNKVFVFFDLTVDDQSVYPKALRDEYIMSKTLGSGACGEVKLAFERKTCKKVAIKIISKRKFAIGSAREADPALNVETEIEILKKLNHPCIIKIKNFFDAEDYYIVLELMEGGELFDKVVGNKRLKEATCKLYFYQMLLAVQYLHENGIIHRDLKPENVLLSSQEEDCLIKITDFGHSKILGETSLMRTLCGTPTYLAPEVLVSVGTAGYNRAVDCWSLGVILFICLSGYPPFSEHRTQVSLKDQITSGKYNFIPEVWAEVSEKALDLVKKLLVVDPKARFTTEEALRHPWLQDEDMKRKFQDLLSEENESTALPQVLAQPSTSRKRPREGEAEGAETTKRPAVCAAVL

Columns and labels:
Test in all cases: co-IP
[1] = target: T1, mSIRT1 (mouse (endogenous in FVB/N female reproductive tract tissue)) (UniProt Q923E4)
T1 sequence: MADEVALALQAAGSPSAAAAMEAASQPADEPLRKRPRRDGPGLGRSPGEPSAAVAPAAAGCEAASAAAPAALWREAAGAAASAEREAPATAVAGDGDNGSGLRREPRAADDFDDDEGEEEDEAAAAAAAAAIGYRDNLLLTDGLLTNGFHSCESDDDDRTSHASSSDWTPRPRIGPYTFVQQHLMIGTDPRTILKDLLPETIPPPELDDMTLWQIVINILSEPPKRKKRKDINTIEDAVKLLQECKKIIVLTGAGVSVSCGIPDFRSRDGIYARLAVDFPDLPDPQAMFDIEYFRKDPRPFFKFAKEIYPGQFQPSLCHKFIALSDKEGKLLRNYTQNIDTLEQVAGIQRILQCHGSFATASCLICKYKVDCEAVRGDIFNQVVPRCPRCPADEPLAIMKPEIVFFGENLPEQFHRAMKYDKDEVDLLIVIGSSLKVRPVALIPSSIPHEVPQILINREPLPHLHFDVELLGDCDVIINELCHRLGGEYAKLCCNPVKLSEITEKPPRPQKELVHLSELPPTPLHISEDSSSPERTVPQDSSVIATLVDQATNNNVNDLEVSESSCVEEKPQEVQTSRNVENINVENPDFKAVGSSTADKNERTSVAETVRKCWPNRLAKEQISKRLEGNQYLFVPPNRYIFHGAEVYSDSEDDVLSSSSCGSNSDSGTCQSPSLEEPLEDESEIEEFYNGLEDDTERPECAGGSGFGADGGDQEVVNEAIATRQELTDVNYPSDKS

[2] = target: HPV16 E2-S23A (human papillomavirus 16) (UniProt P03120)
[3] = target: TOPBP1 (human (endogenous in N/Tert-1, HFK, W12, UM-SCC cells and PDX tumours)) (UniProt Q92547)
[4] = target: mCIP2A (mouse (endogenous in FVB/N female reproductive tract tissue)) (UniProt Q8BWY9)
[5] = target: SIRT1 (human (endogenous in N/Tert-1, HFK, W12, UM-SCC cells and PDX tumours)) (UniProt Q96EB6)
[6] = target: mTOPBP1 (mouse (endogenous in NIH 3T3 cells and FVB/N female reproductive tract tissue)) (UniProt Q6ZQF0)

mDBC1 (from UniProt Q8VDP4 1-922)
binding [1]: binds

ATR (from UniProt Q13535 1-2644)
binding [2]: no binding
binding [3]: binds

mB56α (from UniProt Q6PD03 1-486)
binding [4]: binds

HPV16 E2 wild type (from UniProt P03120 1-365)
binding [5]: binds

CHK2 (from UniProt O96017 1-543)
binding [5]: binds

mCIP2A (from UniProt Q8BWY9 1-907)
binding [6]: binds
